According to patent US7868011B2 (General Atomics, priority 2003, dated 2011):
For at least one compound, name, drawing or mass did not settle the structure.

Experiments:
THP-1 cells [1] = assay: flow cytometry of MHC-II, CD80 and CD86 on THP-1 cells; type: cell-based, human; conditions: IFN-γ 100 U/ml, 48 h
[2] = tested on: lupus-prone MRL-Fas^lpr mice; assay: survival of lupus-prone MRL-Fas lpr mice; type: in vivo, mouse; conditions: 50 mg/kg/day i.p. for ~9 months
Method: MRL-Fas^lpr female mice were provided by The Jackson Laboratory (Bar Harbor, Me.). The mice were housed in specific pathogen-free (SPF) conditions with room temperature of 24±2° C., 12 hr light/dark cycle, and provided with sterile food and water ad libitum. Starting at approximately 6 weeks of age, MRL-Fas^lpr mice (n=11-13/group) were dosed i.p. every day with either DZ2002 (50 mg/kg/day) or with vehicle (0.4% DMSO/PBS) for ˜9 months and followed for survival. Mouse survival data were analyzed by the Kaplan-Meir method with comparison by the log-rank test; p<0.05 was considered to be significant.

[3] = tested on: myelin basic protein (MBP) stimulated splenocytes; assay: cytokine production from MBP stimulated splenocytes of dosed mice (ELISA); type: in vivo, SJL/J mice; conditions: daily i.p. from day 14, splenocytes harvested day 21, cultured with MBP
[4] = tested on: Mouse splenic lymphocytes; assay: [3H]-thymidine incorporation to the splenic lymphocytes; type: cell-based
[5] = tested on: resident and TG induced peritoneal cells; assay: flow cytometry of MHC-II / Mac-1 on peritoneal cells; type: cell-based, BALB/C mice; conditions: for MHC-II expression of resident peritoneal cells: with IFN-γ 100 U/ml, 48 h
[6] = tested on: TG induced peritoneal macrophages; assay: cytokine production from TG induced peritoneal macrophages (ELISA); type: cell-based, BALB/C mice; conditions: IFN-γ and LPS 24 h, 0.1-10 μmol/L
Method: Peritoneal exudate cells were induced in BALB/C mice by an intraperitoneal injection of 0.5 ml of 3% TG. After 4 days, the peritoneal exudates cells were harvested by sterile lavage.
Murine peritoneal exudate cells (6.25×10^5) were cultured in 24-well plates in a volume of 1 ml/well for 2 hours. In adherent cells were washed by ice cold RPMI 1640 and adherent cells were culture in a volume of 2 ml/well in the presence of IFN-γ (2.5 ng/ml) and LPS (1 μg/ml) in the presence or absence of various concentrations of DZ2002. After 24 h, cell-free supernatant was collected and frozen at −20° C. The concentrations of IL-12p40, IL-12p70, IL-10 and TNF-α were determined by ELISA.
Cytokines produced by peritoneal macrophages were assessed following a 24-h incubation with IFN-γ at 25 U/ml and LPS at 1 μg/ml. Resident peritoneal cells produce low levers of cytokines except for some IL-10 with incubated with IFN-γ and LPS (data not shown). As for TG induced peritoneal macrophages, DZ2002 inhibited IL-12P40 and TNF-α release, but have no effect on IL-10 production in the dose of 0.1-10 μmol/L (FIG. 5).

[7] = tested on: Sac stimulated murine splenocytes; assay: cytokine production from Sac stimulated murine splenocytes (ELISA); type: cell-based, mouse; conditions: data not shown
THP-1 cells [8] = assay: cytokine production from THP-1 cells (ELISA); type: cell-based, human; conditions: IFN-γ 500 U/ml and LPS 1 μg/ml, 0.1-10 μmol/L
[9] = tested on: DNFB-induced DTH reaction; assay: Delayed Type Hypersensitivity (DTH) reaction, Example 3; type: in vivo, BALB/c mice; conditions: i.p. 1 hour before and 24 hours after challenge, 40 hours after challenge, dose dependent
[10] = tested on: DNFB-induced DTH response; assay: DNFB-induced DTH ear swelling, oral dosing; type: in vivo, mice; conditions: orally 1 h before DNFB challenge, ear swelling 24 h after challenge

## COC(=O)C(O)CCn1cnc2c(N)ncnc21 (stereo not shown) [DZ2002, Methyl 4-(Adenin-9-yl)-2-hydroxybutanoate]
THP-1 cells [1]; 10 μmol/L
  MHC-II expression of THP-1 cells: modestly reduce
THP-1 cells [1]; 0.1-10 μmol/L, dose-dependent
  CD80 expression of THP-1 cells: reduce
  CD86 expression of THP-1 cells: reduce
[2]
  survival compared to control mice: extended survival
[3]
  IFN-γ production: inhibited
  IL-2 production: inhibited
  IL-10 production: maintained or increased
[4]; 10 μmol·L^−1, 48 h of culture
  lymphocytes proliferation induced by LPS: inhibited
[4]; 0.1-10 μmol·L^−1, 48 h of culture
  lymphocytes proliferation induced by ConA: have no effects
[5]; 10 μmol/L, data not shown
  MHC-II expression of resident peritoneal cells: reduce
[5]; 0.1-10 μmol/L, with IFN-γ, data not shown
  MHC-II expression of TG induced peritoneal cells: dose-dependently decreased
[5]; 0.1 and 1 μmol/L, data not shown
  MHC-II expression of resident peritoneal cells: enhance
[5]; 1 and 10 μmol/L, media alone
  Mac-1+ percentage of TG induced peritoneal cells: decrease
[6]
  IL-12P40 release: inhibited
  TNF-α release: inhibited
[7]
  IL-12P40 release: dose dependently inhibited
  IL-12P70 release: dose dependently inhibited
  TNF-α release: dose dependently inhibited
THP-1 cells [8]
  IL-12P40 release: inhibited
  TNF-α release: inhibited
[9]
  Delayed Type Hypersensitivity (DTH) reaction, ear swelling: significantly reduced
[10]
  mouse DTH response suppressed by ethanol consumption: Reversed the Suppression
